{"source": "PubChem BioAssay AID1224830 | NIAID | 2016", "aim": "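Regulators of TLR4 signalling towards TNF-alpha in macrophage-like cells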 (primary screen)", "system": "human THP-1 monocytic leukaemia cells, TNF dual-luciferase reporter clone, PMA-differentiated to macrophage-like cells", "reagents": "siRNA pool against human genes, 50 nM", "time to read-out": "LPS for 4 h, given about 3 days after siRNA transfection", "treatment": "bacterial LPS (TLR4 ligand), 10 ng/ml", "measured": "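Ratio of firefly to renilla light, scaled to the plate median and expressed as a robust z-score per replicate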", "direction": "TNF reporter robust z-score: higher = stronger TNF reporter response to LPS", "rule for the call": "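a well is active when its z-score exceeds 2.8 or falls below -1.5; control wells carry no call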", "note": "This is one part, drawn at random, of about 18,000 reagents tested. Of all reagents, about 2,900 (16%) got an active call. 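Calls are made per well; low scores hint the gene aids the LPS response, high scores that it dampens it.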 Repeated entries: four replicate wells of each siRNA pool."}
{"gene": "FLNB (filamin B)", "TNF reporter robust z-score": -0.09, "Outcome": "inactive"}
{"gene": "FLNB (filamin B)", "TNF reporter robust z-score": 0.68, "Outcome": "inactive"}
{"gene": "FLNB (filamin B)", "TNF reporter robust z-score": 0.62, "Outcome": "inactive"}
{"gene": "FLNB (filamin B)", "TNF reporter robust z-score": 0.39, "Outcome": "inactive"}
{"gene": "NUDT11 (nudix hydrolase 11)", "TNF reporter robust z-score": 1, "Outcome": "inactive"}
{"gene": "NUDT11 (nudix hydrolase 11)", "TNF reporter robust z-score": -1.11, "Outcome": "inactive"}
{"gene": "NUDT11 (nudix hydrolase 11)", "TNF reporter robust z-score": 0.92, "Outcome": "inactive"}
{"gene": "NUDT11 (nudix hydrolase 11)", "TNF reporter robust z-score": -1.57, "Outcome": "active"}
{"gene": "RAB10 (RAB10, member RAS oncogene family)", "TNF reporter robust z-score": 1.56, "Outcome": "inactive"}
{"gene": "RAB10 (RAB10, member RAS oncogene family)", "TNF reporter robust z-score": 3.97, "Outcome": "active"}
{"gene": "RAB10 (RAB10, member RAS oncogene family)", "TNF reporter robust z-score": 2.53, "Outcome": "inactive"}
{"gene": "RAB10 (RAB10, member RAS oncogene family)", "TNF reporter robust z-score": 2.27, "Outcome": "inactive"}
{"gene": "GALNT13 (polypeptide N-acetylgalactosaminyltransferase 13)", "TNF reporter robust z-score": -0.9, "Outcome": "inactive"}
{"gene": "GALNT13 (polypeptide N-acetylgalactosaminyltransferase 13)", "TNF reporter robust z-score": 1.97, "Outcome": "inactive"}
{"gene": "GALNT13 (polypeptide N-acetylgalactosaminyltransferase 13)", "TNF reporter robust z-score": -0.88, "Outcome": "inactive"}
{"gene": "GALNT13 (polypeptide N-acetylgalactosaminyltransferase 13)", "TNF reporter robust z-score": -0.06, "Outcome": "inactive"}
{"gene": "MARK2 (microtubule affinity regulating kinase 2)", "TNF reporter robust z-score": 0.14, "Outcome": "inactive"}
{"gene": "MARK2 (microtubule affinity regulating kinase 2)", "TNF reporter robust z-score": -0.3, "Outcome": "inactive"}
{"gene": "MARK2 (microtubule affinity regulating kinase 2)", "TNF reporter robust z-score": 0.59, "Outcome": "inactive"}
{"gene": "MARK2 (microtubule affinity regulating kinase 2)", "TNF reporter robust z-score": 1.28, "Outcome": "inactive"}
{"gene": "ATXN10 (ataxin 10)", "TNF reporter robust z-score": -1.61, "Outcome": "active"}
{"gene": "ATXN10 (ataxin 10)", "TNF reporter robust z-score": 0.21, "Outcome": "inactive"}
{"gene": "ATXN10 (ataxin 10)", "TNF reporter robust z-score": -1.06, "Outcome": "inactive"}
{"gene": "ATXN10 (ataxin 10)", "TNF reporter robust z-score": -0.12, "Outcome": "inactive"}
{"gene": "TM9SF4 (transmembrane 9 superfamily member 4)", "TNF reporter robust z-score": -0.74, "Outcome": "inactive"}
{"gene": "TM9SF4 (transmembrane 9 superfamily member 4)", "TNF reporter robust z-score": -0.44, "Outcome": "inactive"}
{"gene": "TM9SF4 (transmembrane 9 superfamily member 4)", "TNF reporter robust z-score": -0.49, "Outcome": "inactive"}
{"gene": "TM9SF4 (transmembrane 9 superfamily member 4)", "TNF reporter robust z-score": -0.4, "Outcome": "inactive"}
{"gene": "TIMM8B (translocase of inner mitochondrial membrane 8 homolog B)", "TNF reporter robust z-score": -1.78, "Outcome": "active"}
{"gene": "TIMM8B (translocase of inner mitochondrial membrane 8 homolog B)", "TNF reporter robust z-score": -0.61, "Outcome": "inactive"}
{"gene": "TIMM8B (translocase of inner mitochondrial membrane 8 homolog B)", "TNF reporter robust z-score": -1, "Outcome": "inactive"}
{"gene": "TIMM8B (translocase of inner mitochondrial membrane 8 homolog B)", "TNF reporter robust z-score": -1.82, "Outcome": "active"}
{"gene": "DLX2 (distal-less homeobox 2)", "TNF reporter robust z-score": -1.14, "Outcome": "inactive"}
{"gene": "DLX2 (distal-less homeobox 2)", "TNF reporter robust z-score": -0.91, "Outcome": "inactive"}
{"gene": "DLX2 (distal-less homeobox 2)", "TNF reporter robust z-score": -0.92, "Outcome": "inactive"}
{"gene": "DLX2 (distal-less homeobox 2)", "TNF reporter robust z-score": -0.48, "Outcome": "inactive"}

A stretch taken from the entries so far, for reference:
{"gene": "ATXN10 (ataxin 10)", "TNF reporter robust z-score": -0.12, "Outcome": "inactive"}
{"gene": "TM9SF4 (transmembrane 9 superfamily member 4)", "TNF reporter robust z-score": -0.74, "Outcome": "inactive"}
{"gene": "TM9SF4 (transmembrane 9 superfamily member 4)", "TNF reporter robust z-score": -0.44, "Outcome": "inactive"}
{"gene": "TM9SF4 (transmembrane 9 superfamily member 4)", "TNF reporter robust z-score": -0.49, "Outcome": "inactive"}
{"gene": "TM9SF4 (transmembrane 9 superfamily member 4)", "TNF reporter robust z-score": -0.4, "Outcome": "inactive"}

More entries follow:
{"gene": "KLRC4 (killer cell lectin like receptor C4)", "TNF reporter robust z-score": -0.68, "Outcome": "inactive"}
{"gene": "KLRC4 (killer cell lectin like receptor C4)", "TNF reporter robust z-score": 0.03, "Outcome": "inactive"}
{"gene": "KLRC4 (killer cell lectin like receptor C4)", "TNF reporter robust z-score": -0.34, "Outcome": "inactive"}
{"gene": "KLRC4 (killer cell lectin like receptor C4)", "TNF reporter robust z-score": 0.66, "Outcome": "inactive"}
{"gene": "KLHL24 (kelch like family member 24)", "TNF reporter robust z-score": 0.48, "Outcome": "inactive"}
{"gene": "KLHL24 (kelch like family member 24)", "TNF reporter robust z-score": 1.6, "Outcome": "inactive"}
{"gene": "KLHL24 (kelch like family member 24)", "TNF reporter robust z-score": 0.28, "Outcome": "inactive"}
{"gene": "KLHL24 (kelch like family member 24)", "TNF reporter robust z-score": 0.27, "Outcome": "inactive"}
{"gene": "NABP1 (nucleic acid binding protein 1)", "TNF reporter robust z-score": 0, "Outcome": "inactive"}
{"gene": "NABP1 (nucleic acid binding protein 1)", "TNF reporter robust z-score": -0.59, "Outcome": "inactive"}
{"gene": "NABP1 (nucleic acid binding protein 1)", "TNF reporter robust z-score": -0.52, "Outcome": "inactive"}
{"gene": "NABP1 (nucleic acid binding protein 1)", "TNF reporter robust z-score": -0.55, "Outcome": "inactive"}
{"gene": "PCDHGA10 (protocadherin gamma subfamily A, 10)", "TNF reporter robust z-score": -0.76, "Outcome": "inactive"}
{"gene": "PCDHGA10 (protocadherin gamma subfamily A, 10)", "TNF reporter robust z-score": -0.74, "Outcome": "inactive"}
{"gene": "PCDHGA10 (protocadherin gamma subfamily A, 10)", "TNF reporter robust z-score": -0.24, "Outcome": "inactive"}
{"gene": "TRIP6 (thyroid hormone receptor interactor 6)", "TNF reporter robust z-score": -0.83, "Outcome": "inactive"}
{"gene": "TRIP6 (thyroid hormone receptor interactor 6)", "TNF reporter robust z-score": -0.6, "Outcome": "inactive"}
{"gene": "TRIP6 (thyroid hormone receptor interactor 6)", "TNF reporter robust z-score": -0.61, "Outcome": "inactive"}
{"gene": "TRIP6 (thyroid hormone receptor interactor 6)", "TNF reporter robust z-score": -0.79, "Outcome": "inactive"}
{"gene": "GGT7 (gamma-glutamyltransferase 7)", "TNF reporter robust z-score": 0.09, "Outcome": "inactive"}
{"gene": "GGT7 (gamma-glutamyltransferase 7)", "TNF reporter robust z-score": 0.58, "Outcome": "inactive"}
{"gene": "GGT7 (gamma-glutamyltransferase 7)", "TNF reporter robust z-score": -0.24, "Outcome": "inactive"}
{"gene": "GGT7 (gamma-glutamyltransferase 7)", "TNF reporter robust z-score": 0.51, "Outcome": "inactive"}
{"gene": "WNT5A (Wnt family member 5A)", "TNF reporter robust z-score": -0.41, "Outcome": "inactive"}
{"gene": "WNT5A (Wnt family member 5A)", "TNF reporter robust z-score": -1.81, "Outcome": "active"}
{"gene": "WNT5A (Wnt family member 5A)", "TNF reporter robust z-score": -1.08, "Outcome": "inactive"}
{"gene": "WNT5A (Wnt family member 5A)", "TNF reporter robust z-score": -0.76, "Outcome": "inactive"}
